The data set relates to refractory malignancies. Description: Phase 1/2 study of 9-ING-41 as a single agent or with chemotherapy in pediatric patients with refractory malignancies. In kind it is in vivo, human (pediatric patients). The following applies: pediatric patients on study.

Each structure is given as a SMILES string.

In the case of `Cn1cc(C2=C(c3coc4ccc(F)cc34)C(=O)NC2=O)c2cc3c(cc21)OCO3` [9-ING-41, 3-(5-Fluorobenzofuran-3-yl)-4-(5-methyl-5H-[1,3]dioxolo[4,5-f]indol-7-yl) pyrrole-2,5-dione], the Median treatment duration worked out at 40 days and the “treatment duration, range” value was 1 to 126 days.

The values are drawn from patent US20260232634A1, “TREATMENT OF PEDIATRIC CANCERS USING GYLCOGEN SYNTHASE KINASE FORM B INHIBITORS” (Actuate Therapeutics Inc., priority 2023, published 2026).
